# Experimental data from paper PMC11063629.
# Amino acid sequences for entries named in this document (tags omitted).
# UniProt Q9BUL8: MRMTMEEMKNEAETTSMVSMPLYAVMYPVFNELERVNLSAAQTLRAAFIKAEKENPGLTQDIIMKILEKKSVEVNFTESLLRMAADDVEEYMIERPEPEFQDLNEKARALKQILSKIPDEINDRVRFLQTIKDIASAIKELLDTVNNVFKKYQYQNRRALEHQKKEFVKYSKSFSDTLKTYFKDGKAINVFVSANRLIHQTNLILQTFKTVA
# UniProt O00506: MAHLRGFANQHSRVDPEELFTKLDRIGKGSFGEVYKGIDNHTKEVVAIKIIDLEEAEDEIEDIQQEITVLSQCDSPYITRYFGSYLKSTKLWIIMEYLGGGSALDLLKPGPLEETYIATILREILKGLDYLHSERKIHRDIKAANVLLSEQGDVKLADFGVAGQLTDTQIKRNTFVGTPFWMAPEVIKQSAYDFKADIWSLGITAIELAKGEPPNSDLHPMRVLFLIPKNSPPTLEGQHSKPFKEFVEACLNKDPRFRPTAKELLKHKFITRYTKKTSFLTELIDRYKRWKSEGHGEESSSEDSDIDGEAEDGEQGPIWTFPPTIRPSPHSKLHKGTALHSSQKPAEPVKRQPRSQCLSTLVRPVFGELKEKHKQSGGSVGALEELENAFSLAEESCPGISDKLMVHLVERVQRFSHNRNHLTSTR
# UniProt Q9P289: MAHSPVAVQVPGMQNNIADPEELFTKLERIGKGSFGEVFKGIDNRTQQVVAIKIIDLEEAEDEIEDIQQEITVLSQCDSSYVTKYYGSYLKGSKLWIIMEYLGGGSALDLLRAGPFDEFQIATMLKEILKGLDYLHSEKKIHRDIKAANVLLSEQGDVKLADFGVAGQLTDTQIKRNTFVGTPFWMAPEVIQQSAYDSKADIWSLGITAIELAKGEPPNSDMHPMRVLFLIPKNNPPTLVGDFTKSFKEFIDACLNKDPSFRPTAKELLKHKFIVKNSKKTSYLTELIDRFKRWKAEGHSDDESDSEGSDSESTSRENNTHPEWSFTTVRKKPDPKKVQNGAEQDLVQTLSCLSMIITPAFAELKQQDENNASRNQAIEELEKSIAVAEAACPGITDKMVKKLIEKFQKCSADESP
# No constants are given. Whether binding was seen depends on the method and setting. In cells and extracts the contact can be indirect. These calls come from enrichment with a bait or labelling near it, and not all partners need be listed. Tags and fused reporters may be left off the sequences shown.
# Target: T1, C4orf19-3xFLAG-miniTurbo (human) (UniProt Q8IY42)
# T1 sequence: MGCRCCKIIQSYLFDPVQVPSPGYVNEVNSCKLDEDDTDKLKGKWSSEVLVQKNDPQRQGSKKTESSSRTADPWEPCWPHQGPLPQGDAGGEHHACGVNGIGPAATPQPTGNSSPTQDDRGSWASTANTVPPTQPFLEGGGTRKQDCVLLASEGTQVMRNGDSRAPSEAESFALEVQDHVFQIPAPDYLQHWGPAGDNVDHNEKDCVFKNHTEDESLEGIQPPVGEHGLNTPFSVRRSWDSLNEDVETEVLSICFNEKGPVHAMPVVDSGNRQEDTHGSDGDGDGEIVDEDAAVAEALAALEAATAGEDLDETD
# Experiment: proximity labelling; miniTurboID in MCF10A expressing C4orf19-3xFLAG-miniTurbo; 0.5 μg/mL doxycycline and 40 μM biotin for 4 h; streptavidin-Sepharose capture and mass spectrometry; SAINTexpress, Bayesian false discovery rate <5% against miniTurbo-eGFP-only and untransduced MCF10A controls
row,binding,Substance
1,binds,PDCD10 (from UniProt Q9BUL8 1-212)
2,binds,STK25 (from UniProt O00506 1-426) (enzyme)
3,binds,STK26 (from UniProt Q9P289 1-416) (enzyme)
